Results as given in PubChem BioAssay AID1347426 (Functional Genomics Laboratory (NCATS/FGL), 2020).
About 1,400 (4.5%) of roughly 31,000 sequences were called active.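 Rule for the calls: active = median seed-adjusted z-score above 1 or below -1; inactive = the rest.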 The list shows a part of the results.

Assay: Novel Modifiers of Survival Motor Neuron (SMN) Protein: Gene Identification via Genome-wide siRNA Screen;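 note: luminescence tracks full-length SMN protein made from the SMN2 reporter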
Conditions: HEK293T SMN2-luciferase reporter, siRNA knockdown, 72 h; actives lie on both sides
In short: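 HEK293T cells stably carrying an SMN2 promoter/splicing cassette–luciferase reporter were reverse-transfected with 1 pmol siRNA per well (druggable-genome library, 3 siRNAs per gene) and grown 72 h at 37 °C. Luminescence, normalized to negative-control siRNA and log10-transformed, was scored as MAD.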

Q: With GAAGGACUCCUGCAACGGUTT against KLK4 as the sequence, how does the median seed-adjusted z-score read?
A: inactive: 0.437

Q: For GGCAACAACUGGAUCUGAATT against PIGZ, which median seed-adjusted z-score is on record?
A: inactive: 0.74

Q: Which median seed-adjusted z-score does the source give for ACAACUUCGUUUUCGGUCATT against TUBB2C here?
A: inactive: 0

Q: Which median seed-adjusted z-score does the source give for GUGUGAAGGUAGACCGUGATT against SPATA20 here?
A: inactive: 0

Q: Which median seed-adjusted z-score does the source give for GCAAUGACUCUAAACUGGATT against S100A14 here?
A: inactive: 0.0172

Q: Which median seed-adjusted z-score does the source give for CGAGCCACCGAGAAGAUAATT against ATAD3A here?
A: inactive: -0.283

Q: With CGUGAGAUCUACGACUUCATT against PTDSS2 as the sequence, how does the median seed-adjusted z-score read?
A: inactive: 0.0941

Q: Which median seed-adjusted z-score does the source give for GGCACGUUUUACGACAGAATT against CHEK2 here?
A: inactive: 0.585

Q: Which median seed-adjusted z-score does the source give for GCAAGGUUGUAAAAUCAAATT against MEX3B here?
A: inactive: -0.0576

Q: For GAUAAUUACUAUCACCUAUTT against PCDHGA5, which median seed-adjusted z-score is on record?
A: inactive: 0.163

Q: For UGGAAAUACUUAUCCCAAUTT against SPINK1, which median seed-adjusted z-score is on record?
A: inactive: 0.292

Q: Which median seed-adjusted z-score does the source give for GGUGUAUGAUGGAUACUGATT against COPG2 here?
A: inactive: -0.564

Q: For CAGUUGCGUUAAUUCGAAATT against HECTD1, which median seed-adjusted z-score is on record?
A: inactive: -0.0588

Q: Which median seed-adjusted z-score does the source give for CAGCGUGUAUUAGAGAGUATT against GPD2 here?
A: inactive: 0.0606

Q: For CGACAUUACUAAUCAGGAATT against RAB5B, which median seed-adjusted z-score is on record?
A: inactive: 0.299

Q: Which median seed-adjusted z-score does the source give for CAGUAGUGCCUGUCGGGAATT against LEPROT here?
A: inactive: -0.17

Q: Which median seed-adjusted z-score does the source give for GCAAGUCGUCUAUUCAGAATT against RRAGD here?
A: inactive: 0.313

Q: Which median seed-adjusted z-score does the source give for AAGUUCCUAUCGGUCGUAUTT against HBZ here?
A: inactive: -0.0054

Q: For CAGCUAUUUCUGAUAGAUATT against MTMR12, which median seed-adjusted z-score is on record?
A: inactive: 0.419

Q: For GGACUUACACUCUUAGGAATT against MAOB, which median seed-adjusted z-score is on record?
A: inactive: 0

Q: For UCCGGGCUGUGAAAAGUUATT against GALNS, which median seed-adjusted z-score is on record?
A: inactive: 0.0287

Q: Which median seed-adjusted z-score does the source give for GAGUUUAGCUGUAAGGACATT against ACOX2 here?
A: inactive: -0.545

Q: For GGAAGACCAGUGUACUUUATT against RAB27A, which median seed-adjusted z-score is on record?
A: inactive: -0.134

Q: For CAGACAGUAUGUUCGAAGATT against PPAT, which median seed-adjusted z-score is on record?
A: active: -1.51

Q: With CUCAGGACAUUGCUUCUUATT against TMEM1 as the sequence, how does the median seed-adjusted z-score read?
A: inactive: -0.191

Q: For CCAACAGACAUAAACACGATT against TCF12, which median seed-adjusted z-score is on record?
A: inactive: -0.16

Q: For GAAGCAUCCUGAUGACGAATT against CRTAP, which median seed-adjusted z-score is on record?
A: inactive: 0.581

Q: Which median seed-adjusted z-score does the source give for GGUGAUACUAUCAACCAAATT against YAP1 here?
A: inactive: -0.247

Q: For CCCUCUAUCCAGUAUCUAATT against RFXDC2, which median seed-adjusted z-score is on record?
A: inactive: 0.724

Q: Which median seed-adjusted z-score does the source give for GUCUACAUCUUUGCACUUUTT against GPR97 here?
A: inactive: -0.0155

Q: For GCUUACAUAGCAAAUCUAATT against ST8SIA2, which median seed-adjusted z-score is on record?
A: inactive: 0.516

Q: With CCCUAUGUAUGAAGGAUAUTT against USP1 as the sequence, how does the median seed-adjusted z-score read?
A: inactive: -0.564

Q: Which median seed-adjusted z-score does the source give for GGACAUUGAUGUGAUCCUATT against ALPPL2 here?
A: inactive: 0.331

Q: Which median seed-adjusted z-score does the source give for CCCUGGAUGUCCUAUCUGATT against SLC2A1 here?
A: inactive: -0.349

Q: With UGGUGAUGCUGACAGCUGATT against RCC1 as the sequence, how does the median seed-adjusted z-score read?
A: inactive: -0.165

Q: Which median seed-adjusted z-score does the source give for GUGUCUCCAUAGUACGAGATT against ELP3 here?
A: inactive: 0.321

Q: Which median seed-adjusted z-score does the source give for CGAUUACCUUUGGAUAAGATT against TNPO3 here?
A: inactive: 0.577

Q: Which median seed-adjusted z-score does the source give for GCUGAACUCAUUUACAAGATT against B3GALT1 here?
A: inactive: -0.0555

Q: For AGAUGUUACAUAAAACGAUTT against PTPN20B, which median seed-adjusted z-score is on record?
A: inactive: -0.62

Q: With CAGCAUUUAUCAAGUCUUATT against BMP6 as the sequence, how does the median seed-adjusted z-score read?
A: inactive: 0.301

Q: With GCAAGAGUCGUUCACCAGATT against MGMT as the sequence, how does the median seed-adjusted z-score read?
A: inactive: -0.0549

Q: With GGAAAUACCUAGGCCGGUATT against GYS1 as the sequence, how does the median seed-adjusted z-score read?
A: inactive: 0.874

Q: Which median seed-adjusted z-score does the source give for CUGGACAACUGAAACAAUUTT against GSTM3 here?
A: inactive: -0.66

Q: For GGAUUGAUAAAGAGGUAAATT against ASH1L, which median seed-adjusted z-score is on record?
A: inactive: -0.197

Q: For CCAAGCAAAAUGUAGAUUATT against MGAT4C, which median seed-adjusted z-score is on record?
A: inactive: 0.187

Q: Which median seed-adjusted z-score does the source give for UGUUAAGCUUUACCAUUAATT against ATP5G1 here?
A: inactive: -0.311

Q: For GCAGCUUCAAGAUCAAUGATT against ANTXR1, which median seed-adjusted z-score is on record?
A: inactive: -0.0849

Q: Which median seed-adjusted z-score does the source give for GCUUGUAACUUGACGAGCUTT against DOCK7 here?
A: inactive: 0.23

Q: For GAUUCUUUUGAAAAAGUGATT against ZNF675, which median seed-adjusted z-score is on record?
A: inactive: -0.343

Q: Which median seed-adjusted z-score does the source give for AGGAGGUUACGGCACAAAATT against STK11 here?
A: inactive: 0.348

Q: With GUAUAUCACCAGUUUCACATT against KCNJ13 as the sequence, how does the median seed-adjusted z-score read?
A: inactive: 0.327

Q: With GCAAGGAUGGUGUUCCAUATT against ABLIM3 as the sequence, how does the median seed-adjusted z-score read?
A: inactive: -0.29

Q: With GCACCAACGUGUCACUGCUTT against TSKS as the sequence, how does the median seed-adjusted z-score read?
A: inactive: -0.0409

Q: Which median seed-adjusted z-score does the source give for CCAUCUACCAGCUAAUCAATT against PIK3C2G here?
A: inactive: 0.0251

Q: Which median seed-adjusted z-score does the source give for CAUUCAGACUGGGUAAACATT against IL10RB here?
A: inactive: 0.167

Q: Which median seed-adjusted z-score does the source give for GGAGGAUUUCUACCCUAAUTT against CYP2U1 here?
A: inactive: 0.144

Q: With CAGUGUAAGUUGGACGAAATT against MS4A6E as the sequence, how does the median seed-adjusted z-score read?
A: inactive: -0.341

Q: Which median seed-adjusted z-score does the source give for UGAGUAUUUUUACUCCCAUTT against PBX4 here?
A: inactive: -0.855

Q: With CGAUCUGUCUCGAUACAAUTT against PPP2R3A as the sequence, how does the median seed-adjusted z-score read?
A: inactive: 0.175

Q: Which median seed-adjusted z-score does the source give for GAAAGUUCCCAAUCACUAUTT against CPXM2 here?
A: inactive: 0

Q: For GCUCUUCUAGACAUCGAUATT against NUBP1, which median seed-adjusted z-score is on record?
A: inactive: -0.0975

Q: Which median seed-adjusted z-score does the source give for GAAGGAAACAUGACGAUGATT against ZXDC here?
A: inactive: -0.0213

Q: Which median seed-adjusted z-score does the source give for GAGAUUAUGUCUACGUUUATT against UHRF2 here?
A: inactive: -0.0941

Q: For GGUCGAAUGAUAAGGUGUATT against PTK2, which median seed-adjusted z-score is on record?
A: inactive: -0.0806

Q: With GAUUGUUGCUUGAUAGUGUTT against CCNC as the sequence, how does the median seed-adjusted z-score read?
A: inactive: -0.606

Q: For GAAUAGUACCAAGAACUCATT against PECAM1, which median seed-adjusted z-score is on record?
A: inactive: 0.0717

Q: For GGGACUACUUGACCGUCAATT against PPP2R2B, which median seed-adjusted z-score is on record?
A: inactive: -0.252

Q: For GAGUGGAAUUGAGAUCUUATT against ACSL5, which median seed-adjusted z-score is on record?
A: inactive: 0.109
